Test [1] concerns the target T1, TGFβ type I receptor Flag (TβRI-Flag, Alk5) (UniProt P36897).
T1 sequence: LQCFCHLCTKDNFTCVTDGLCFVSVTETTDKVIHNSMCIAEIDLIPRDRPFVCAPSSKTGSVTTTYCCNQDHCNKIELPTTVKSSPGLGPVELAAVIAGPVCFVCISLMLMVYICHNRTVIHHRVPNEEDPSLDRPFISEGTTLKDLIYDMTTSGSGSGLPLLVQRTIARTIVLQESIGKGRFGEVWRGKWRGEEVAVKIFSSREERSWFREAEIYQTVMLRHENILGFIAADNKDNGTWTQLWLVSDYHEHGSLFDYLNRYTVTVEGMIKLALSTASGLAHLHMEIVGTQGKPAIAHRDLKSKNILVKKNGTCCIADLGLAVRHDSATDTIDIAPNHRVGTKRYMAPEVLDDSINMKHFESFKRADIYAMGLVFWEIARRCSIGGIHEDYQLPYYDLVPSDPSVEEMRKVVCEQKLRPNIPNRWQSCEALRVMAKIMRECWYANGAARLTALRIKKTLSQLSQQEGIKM
Put plainly: affinity purification with mass spectrometry; cells expressing TβRII-Flag or TβRI-Flag and integrin αV-mCherry, lysed (50 mM Tris pH 7.5, 150 mM NaCl, 2 mM EDTA, 0.5% Igepal, 0.25% sodium deoxycholate), M2-Flag magnetic beads, on-bead trypsin digestion, LC-MS/MS; compared with untransfected (mock) cells.

The chains behind the UniProt entries cited, without tags or fusion partners. Residues count along the entry.
UniProt P37173, residues 23-567: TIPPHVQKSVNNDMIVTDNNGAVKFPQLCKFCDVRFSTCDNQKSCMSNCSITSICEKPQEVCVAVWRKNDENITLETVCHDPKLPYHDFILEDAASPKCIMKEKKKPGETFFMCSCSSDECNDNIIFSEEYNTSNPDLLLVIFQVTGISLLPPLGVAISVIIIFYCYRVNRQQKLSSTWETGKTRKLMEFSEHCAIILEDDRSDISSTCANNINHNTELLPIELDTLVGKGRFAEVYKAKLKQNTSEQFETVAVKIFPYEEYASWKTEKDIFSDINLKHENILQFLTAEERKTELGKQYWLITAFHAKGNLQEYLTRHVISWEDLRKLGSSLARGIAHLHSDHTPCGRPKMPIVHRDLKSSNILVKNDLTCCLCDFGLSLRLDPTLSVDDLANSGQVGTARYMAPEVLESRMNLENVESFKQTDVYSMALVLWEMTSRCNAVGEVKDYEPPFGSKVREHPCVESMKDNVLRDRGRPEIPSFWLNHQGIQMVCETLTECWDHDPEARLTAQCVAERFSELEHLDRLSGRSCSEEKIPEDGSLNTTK
UniProt Q99873: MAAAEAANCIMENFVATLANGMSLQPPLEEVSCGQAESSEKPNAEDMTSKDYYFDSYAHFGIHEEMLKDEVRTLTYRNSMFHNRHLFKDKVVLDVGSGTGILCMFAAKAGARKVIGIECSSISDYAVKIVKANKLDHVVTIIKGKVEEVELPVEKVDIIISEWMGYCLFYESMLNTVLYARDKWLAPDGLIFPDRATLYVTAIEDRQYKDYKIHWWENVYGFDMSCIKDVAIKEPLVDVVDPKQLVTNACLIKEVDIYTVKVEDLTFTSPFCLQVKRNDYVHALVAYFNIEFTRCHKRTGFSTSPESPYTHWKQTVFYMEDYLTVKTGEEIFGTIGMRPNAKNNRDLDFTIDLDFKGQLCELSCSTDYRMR
UniProt O14744: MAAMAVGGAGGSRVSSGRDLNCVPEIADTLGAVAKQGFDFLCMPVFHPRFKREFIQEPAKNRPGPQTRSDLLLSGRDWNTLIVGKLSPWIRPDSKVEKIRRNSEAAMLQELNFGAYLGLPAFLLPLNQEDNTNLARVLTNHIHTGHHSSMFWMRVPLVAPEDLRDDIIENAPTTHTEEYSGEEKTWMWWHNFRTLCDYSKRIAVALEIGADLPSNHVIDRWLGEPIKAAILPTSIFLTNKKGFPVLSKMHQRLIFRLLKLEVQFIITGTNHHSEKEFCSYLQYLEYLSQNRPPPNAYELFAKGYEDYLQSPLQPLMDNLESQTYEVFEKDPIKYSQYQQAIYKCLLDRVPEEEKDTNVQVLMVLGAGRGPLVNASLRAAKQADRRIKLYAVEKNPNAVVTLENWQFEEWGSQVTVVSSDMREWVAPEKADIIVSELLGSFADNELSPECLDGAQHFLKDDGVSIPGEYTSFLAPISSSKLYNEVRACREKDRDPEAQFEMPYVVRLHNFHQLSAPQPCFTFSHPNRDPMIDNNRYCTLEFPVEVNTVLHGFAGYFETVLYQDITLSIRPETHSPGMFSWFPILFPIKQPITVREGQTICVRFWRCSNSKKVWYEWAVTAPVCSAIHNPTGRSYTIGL

Test [2] concerns the target TGFβ type II receptor Flag (TβRII-Flag) (UniProt P37173). The description is as above.

These are yes or no findings as the source states them, for the method shown. In cells and extracts the contact can be indirect. Here binding means that the protein was enriched with, or labelled near, the bait; the list need not be complete. For some of these results: Tags and fused reporters may be left off the sequences shown.

On to “PRMT1 (from UniProt Q99873 1-371) (enzyme)”, for which the binding entry in test [1] and in test [2] was “binds” each time.

In the case of “PRMT5 (from UniProt O14744 1-637) (enzyme)”, the binding result in test [1] and in test [2] was “binds” each time.

The values above are taken from article PMC4728123.
